Screen size: about 220,000 compounds; about 910 (0.41%) were called active. The inconclusive results got no clear call from the source; some entries with a clear call stand among them for comparison.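 Rule for the calls: active = primary inhibition above the hit cutoff, then over 50% inhibition at one or more dose response concentrations (cut at about 23% in these data, passing the limit was not always enough); inconclusive = conflicting primary data, or primary hits not chosen for dose response; inactive = low primary inhibition, or under 50% at every dose.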 More than one record can exist for a structure, and the calls need not agree.
Biological target: Aminopeptidase N (Plasmodium falciparum (isolate 3D7)) (UniProt O96935)
Experiment: P. falciparum M1AAP inhibitors, biochemical, fluorogenic H-Leu-NHMec substrate, 1536-well (AID 1445);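 note: plate controls were DMSO full reaction for no effect and no enzyme background for full effect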
Conditions: recombinant M1AAP, H-Leu-NHMec fluorogenic kinetic assay; at 30 µM, stronger effect = higher value unless noted

Amino acid sequences for entries named in this document (tags omitted). A change or cut given only in a name is not applied to a line headed by its entry.
UniProt O96935: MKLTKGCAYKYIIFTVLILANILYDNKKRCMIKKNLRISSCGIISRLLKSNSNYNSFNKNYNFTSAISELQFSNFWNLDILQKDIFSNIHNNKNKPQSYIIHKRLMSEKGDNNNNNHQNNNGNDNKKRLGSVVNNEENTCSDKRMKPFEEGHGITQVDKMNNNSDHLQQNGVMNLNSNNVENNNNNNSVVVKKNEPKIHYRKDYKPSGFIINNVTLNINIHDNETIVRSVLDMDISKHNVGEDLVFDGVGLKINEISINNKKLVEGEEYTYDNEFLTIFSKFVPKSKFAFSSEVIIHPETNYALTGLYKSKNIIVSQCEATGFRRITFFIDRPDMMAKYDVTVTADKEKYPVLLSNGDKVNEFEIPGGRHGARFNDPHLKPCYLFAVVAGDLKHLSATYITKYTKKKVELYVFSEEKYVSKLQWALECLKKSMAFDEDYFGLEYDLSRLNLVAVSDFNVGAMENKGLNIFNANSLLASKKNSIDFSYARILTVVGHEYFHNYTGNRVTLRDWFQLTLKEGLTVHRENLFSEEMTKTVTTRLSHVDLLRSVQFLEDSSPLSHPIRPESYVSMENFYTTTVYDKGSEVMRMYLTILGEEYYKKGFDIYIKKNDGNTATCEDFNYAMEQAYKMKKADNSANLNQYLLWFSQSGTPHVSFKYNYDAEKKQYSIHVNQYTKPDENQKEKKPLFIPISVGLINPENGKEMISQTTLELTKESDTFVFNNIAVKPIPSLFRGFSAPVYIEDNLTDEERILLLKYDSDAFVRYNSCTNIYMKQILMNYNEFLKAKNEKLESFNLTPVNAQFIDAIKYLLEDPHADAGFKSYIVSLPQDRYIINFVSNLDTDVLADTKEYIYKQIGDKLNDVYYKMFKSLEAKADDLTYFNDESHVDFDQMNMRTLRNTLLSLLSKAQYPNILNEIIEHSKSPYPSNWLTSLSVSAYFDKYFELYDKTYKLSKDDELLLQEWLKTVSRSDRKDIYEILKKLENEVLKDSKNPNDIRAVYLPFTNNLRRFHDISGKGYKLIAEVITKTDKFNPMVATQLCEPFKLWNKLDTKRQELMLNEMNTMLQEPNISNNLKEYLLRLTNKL

Row | Structure (SMILES) | inhibition
1 | O=C(NNC(=S)NC1CCCCC1)c1cccc(S(=O)(=O)Nc2ccccc2Cl)c1 | inconclusive: 27.3%
2 | COc1ccc(OC)c2c1sc(=NC(=O)C1CC1)n2C | inactive: 2.25%
3 | O=C(Cn1nnc2ccccc21)Nc1ccccc1[N+](=O)[O-] | inactive: -1.91%
4 | O=C(O)c1cc(-c2ccco2)nc2ccc(Br)cc12 | active: 27.5%
5 | Cc1ccc(S(=O)(=O)Oc2ccccc2/C=C2/SC(=O)NC2=O)cc1 | inconclusive: 24.9%
6 | Cc1ccsc1C1NC(=O)c2c(sc3c2CCN(C)C3)N1 (configuration not stated) | active: 25.9%
7 | COc1cc(C(=O)Nn2c(O)c(C3=c4ccccc4=NC3=O)sc2=S)ccc1O | inconclusive: 26.3%
8 | Cc1nc(N=C(N)N)nc2ccccc12 | inconclusive: 27%
9 | O=S(=O)(Nc1nc2ccccc2[nH]1)c1ccccc1 | inactive: 1.84%
10 | CC(C)C(C(=O)O)N1C(=O)/C(=C/c2cccn2C)SC1=S (configuration not stated) | inconclusive: 25.1%
11 | Cc1cccc(-n2nc3c(c2NC(=O)c2ccc(Br)o2)CSC3)c1C | inconclusive: 24.8%
12 | COc1ccccc1NC(=O)C1=C(C)Nc2nnnn2C1c1cccc(Br)c1 (configuration not stated) | inconclusive: 24.1%
13 | O=C(N/N=C/c1cc(Cl)cc(Cl)c1O)c1ccncc1 | inactive: 29.6%
14 | CCOC(=O)CSc1n[nH]c(NC(=O)c2ccccc2)n1 | inconclusive: 24.9%
15 | O=C(CSc1nc(-c2ccc(Cl)cc2)[nH]c(=O)n1)Nc1cccc(Cl)c1 | inconclusive: 24.6%
16 | CC(=O)c1ccc(NC(=O)C(Cc2ccccc2)NC(=O)c2ccco2)cc1 (configuration not stated) | inactive: 4.11%
17 | CC(C)(C)OC(=O)c1c(N)n(CCCN2CCCC2=O)c2nc3ccccc3nc12 | inconclusive: 31.1%
18 | Cc1ccc(Nc2cc(-n3nc(C)cc3C)ncn2)cc1 | active: 26.7%
19 | C=CCn1c(COc2ccccc2)nnc1SCC(=O)N/N=C/c1cc(Cl)ccc1O | inconclusive: 47.1%

Row | Structure (SMILES) | inhibition
20 | COc1cccc(OC)c1C(=O)Nn1c(C2CCC2)nc2ccccc2c1=O | inactive: 1.68%
21 | O=c1nc(/C=C/c2ccc(-c3ccc(F)cc3)o2)cc(C(F)(F)F)[nH]1 | active: 27.6%
22 | Cc1ccc(/C=C2\SC(=S)N(/N=C/c3cc([N+](=O)[O-])ccc3O)C2=O)o1 | inconclusive: 34.5%
23 | N#CCCN(C(=O)COC(=O)c1cccc(S(=O)(=O)Nc2ccc([N+](=O)[O-])cc2)c1)c1ccccc1 | inconclusive: 25%
24 | CSc1ccc(-c2nnn(CC(=O)NCc3ccccc3)n2)cc1 | inactive: -1.85%
25 | Cc1cc(=O)n2[nH]c(=O)c(N=Nc3ccccc3)c2[nH]1 | inconclusive: 23.7%
26 | CC1(C)CC(N2CCN(C(c3ccccc3)c3ccccc3)CC2)=CC(=[N+]2CCCCC2)C1 | inconclusive: 25.7%
27 | CCc1nnc(NS(=O)(=O)c2ccc(NC(=S)NC(=O)c3ccc(F)cc3)cc2)s1 | inactive: 22.7%
28 | O=C1c2oc3ccccc3c(=O)c2C(c2cccc(O)c2)N1CCCN1CCOCC1 (configuration not stated) | active: 26.8%
29 | O=C1CC(=O)N(Cc2ccco2)C(=O)N1 | inconclusive: 26.2%
30 | CCOc1ccc(-c2cc(C(=O)NCCCN3CCN(CC)CC3)c3ccccc3n2)cc1 | inconclusive: 24.4%
31 | COC(CNC(=O)CCc1c(C)nc2c(-c3ccc(F)cc3)c(C)nn2c1C)OC | inconclusive: 10.3%
32 | COc1ccc(S(=O)(=O)Nc2cc(Sc3ncn[nH]3)c(O)c3ccccc23)cc1 | active: 24.3%
33 | COc1ccc(/C=N/NC(=O)c2nn(-c3ccc(Cl)cc3)c(=O)c3c(N)scc23)cc1 | inconclusive: 22.1%
34 | CN1C(=O)/C(=C/c2ccccc2OCc2ccc(C(=O)O)cc2)NC1=S | inactive: 22.6%
35 | COc1ccccc1-c1cc(C(F)(F)F)nc(S(=O)(=O)CCCC(=O)NCc2ccc(F)cc2)n1 | inconclusive: 25.8%
36 | O=C1CC(N(O)C2CC(=O)N(Cc3ccccc3)C2=O)C(=O)N1Cc1ccccc1 (configuration not stated) | inactive: 6.83%
37 | COc1cc(/C=C2\SC(=S)N(NC(=O)c3ccncc3)C2=O)ccc1O | inconclusive: 24.4%
38 | Cc1ccc(NC(=O)CSc2n[nH]c(=O)n2C2CC2)cc1S(=O)(=O)N1CCOCC1 | inconclusive: 28.3%

Row | Structure (SMILES) | inhibition
39 | COC(=O)c1c(NC(=O)c2nc3ccccc3s2)sc2c1CCN(C(C)=O)C2 | inconclusive: 23.9%
40 | O=C1C2C(c3ccccc3)=NN(c3ccccc3)C2C(=O)N1c1ccccc1 (configuration not stated) | inconclusive: 25.7%
41 | c1ccc(Cn2c(SCc3nc4ccccc4s3)nnc2-c2ccco2)cc1 | inconclusive: 27.5%
42 | O=C(CN1C(=O)NC(CCc2ccccc2)C1=O)NC1CC1 (configuration not stated) | inconclusive: 24.2%
43 | N#Cc1c(-c2ccccc2)nc(SCC(=O)Nc2ccccc2F)[nH]c1=O | inconclusive: 34.3%
44 | NS(=O)(=O)c1ccc(-c2ccc(/C=N/Nc3ccc(C(=O)O)cc3)o2)cc1 | inconclusive: 27.7%
45 | CC(C)CCSc1nc2[nH]ncc2c(=O)[nH]1 | inconclusive: 27.5%
46 | Cc1ccc(-c2[nH]ncc2/C=C(\C#N)C(=O)NC2CCCCC2)cc1 | active: 24.9%
47 | COc1ccc(-c2nc3ccccn3c2/N=C/c2ccc(OC)c(OC)c2)cc1O | inconclusive: 25.9%
48 | CCN(CC)S(=O)(=O)c1ccc(-c2nnc(SCC(C)=O)o2)cc1 | active: 26.5%
49 | N/C(=N\N=C\c1ccc2c(c1)OCO2)SC1CC(=O)N(c2ccc(C(=O)O)cc2)C1=O (configuration not stated) | inconclusive: 25.3%
50 | O=C(N/N=C/c1ccc(O)c(O)c1)C1c2ccccc2Oc2ccccc21 | active: 25.6%
51 | CC(C)Oc1ccc(NC(N)=O)cc1 | inactive: 4.7%
52 | Cc1ccc(NC(=O)CCc2c(C)nc3ncnn3c2C)cc1 | inactive: 0.77%
53 | CC(=O)/C=N/Nc1ccccc1 | inconclusive: 24%
54 | COc1ccc(OCC(=O)NNC(=O)C(=O)N2CCCC2)cc1 | inconclusive: 25.8%
55 | COc1cccc(C2C=C(c3ccc(Br)s3)Nc3ncnn32)c1OC (configuration not stated) | inconclusive: 30.7%
56 | COc1ccc(-c2cc(-c3ccccc3)nc3ncnn23)cc1 | inconclusive: 24.8%
57 | CC(CN1CCCCC1)OC(=O)C1c2ccccc2Oc2ccccc21 (configuration not stated) | inactive: 1.62%

Part of the list above in order of heavy-atom count, low to high:
Row | Structure (SMILES) | inhibition
53 | CC(=O)/C=N/Nc1ccccc1 | inconclusive: 24%
51 | CC(C)Oc1ccc(NC(N)=O)cc1 | inactive: 4.7%
48 | CCN(CC)S(=O)(=O)c1ccc(-c2nnc(SCC(C)=O)o2)cc1 | active: 26.5%
55 | COc1cccc(C2C=C(c3ccc(Br)s3)Nc3ncnn32)c1OC (configuration not stated) | inconclusive: 30.7%
